Test results: patent US20230054718A1
These are yes or no findings as the source states them, for the method shown. Some results given as binding are weak or reduced against the parent protein; the word gives no strength.

Amino acid sequences for entries named in this document (tags omitted). A change or cut given only in a name is not applied to a line headed by its entry. Chains listed by the source or under a name are the forms on record and can include a tag or linker.
recombinant mouse Galectin-9 (O08573, form named): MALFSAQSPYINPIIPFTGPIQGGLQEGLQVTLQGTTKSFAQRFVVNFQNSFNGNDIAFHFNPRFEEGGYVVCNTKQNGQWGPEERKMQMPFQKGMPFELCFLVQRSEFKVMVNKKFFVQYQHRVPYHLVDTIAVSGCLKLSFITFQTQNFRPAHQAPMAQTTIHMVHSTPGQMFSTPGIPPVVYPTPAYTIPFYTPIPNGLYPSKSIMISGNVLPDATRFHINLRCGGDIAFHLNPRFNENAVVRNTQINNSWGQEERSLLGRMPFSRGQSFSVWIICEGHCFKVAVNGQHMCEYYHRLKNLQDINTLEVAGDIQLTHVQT
recombinant human Galectin-9 (O00182, form named): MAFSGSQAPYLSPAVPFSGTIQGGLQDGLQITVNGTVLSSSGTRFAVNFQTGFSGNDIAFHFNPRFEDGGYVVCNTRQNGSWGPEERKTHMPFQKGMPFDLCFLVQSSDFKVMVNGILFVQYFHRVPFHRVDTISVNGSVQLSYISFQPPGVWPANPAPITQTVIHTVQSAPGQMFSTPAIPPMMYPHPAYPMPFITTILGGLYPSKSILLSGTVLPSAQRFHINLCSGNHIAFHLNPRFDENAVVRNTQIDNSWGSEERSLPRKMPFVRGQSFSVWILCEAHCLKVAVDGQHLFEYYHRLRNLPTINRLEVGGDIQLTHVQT

Experiments:
[1] = target: recombinant mouse Galectin-9 (mouse) (UniProt O08573); assay: binding to recombinant mouse Gal-9, OD read-out over antibody concentration (nM)
[2] = target: recombinant human Galectin-9 (human) (UniProt O00182); assay: EC50 titration, method not named (FIG. 3)
[3] = target: recombinant mouse Galectin-9 (mouse) (UniProt O08573); assay: EC50 titration, method not named (FIG. 4)

binding [1] | binding [2] | binding [3] | Binder
binds | – | – | HFB9-1hz4-hG1AA (antibody, V domains shown) VH: QVQLVQSGAEVKKPGSSVKVSCKASGYTFTDYTIHWVRQAPGQGLEWMGWFYPGSHSIKYAQKFQGRVTITADKSTSTAYMELSSLRSEDTAVYYCARHGGYDGFDYWGQGTLVTVSS VL: DIVMTQSPDSLAVSLGERATINCKSSQSLFYSTNQKNYLAWYQQKPGQPPKLLIYWASTRESGVPDRFSGSGSGTDFTLTISSLQAEDVAVYYCQQYYYFPYTFGQGTKLEIK
– | binds | binds | HFB9-1hz1-hG1AA (antibody, human IgG1, V domains shown) VH: QVQLVQSGAEVKKPGASVKVSCKASGYTFTDYTIHWVRQAPGQGLEWMGWFYPGSHSIKYAQKFQGRVTMTADTSISTAYMELSRLRSDDTAVYFCTRHGGYDGFDYWGQGTLVTVSS VL: DIVMTQSPDSLAVSLGERATINCKSSQSLFYSTNQKNYLAWYQQKPGQPPKLLIYWASTRESGVPDRFSGSGSGTDFTLTISSLQAEDVAVYYCQQYYYFPYTFGQGTKLEIK
– | binds | binds | HFB9-1hz3-hG1AA (antibody, human IgG1, V domains shown) VH: QVQLVQSGAEVKKPGSSVKVSCKASGYTFTDYTIHWVRQAPGQGLEWMGWFYPGSHSIKYAQKFQGRVTITADKSTSTAYMELSSLRSEDTAVYYCTRHGGYDGFDYWGQGTLVTVSS VL: DIVMTQSPDSLAVSLGERATINCKSSQSLFYSTNQKNYLAWYQQKPGQPPKLLIYWASTRESGVPDRFSGSGSGTDFTLTISSLQAEDVAVYYCQQYYYFPYTFGQGTKLEIK
– | binds | binds | HFB9-1hz2-hG1AA (antibody, human IgG1, V domains shown) VH: QVQLVQSGAEVKKPGSSVKVSCKASGYTFTDYTIHWVRQAPGQGLEWMGWFYPGSHSIKYAQKFQGRVTITADKSTSTAYMELSSLRSEDTAVYFCTRHGGYDGFDYWGQGTLVTVSS VL: DIVMTQSPDSLAVSLGERATINCKSSQSLFYSTNQKNYLAWYQQKPGQPPKLLIYWASTRESGVPDRFSGSGSGTDFTLTISSLQAEDVAVYYCQQYYYFPYTFGQGTKLEIK
